Source: PMC7819943, “Rice protein-binding microarrays: a tool to detect cis-acting elements near promoter regions in rice”
The other results are listed elsewhere or left out.

Amino acid sequences for entries named in this document (tags omitted).
UniProt Q0JBA9, entry or part of it: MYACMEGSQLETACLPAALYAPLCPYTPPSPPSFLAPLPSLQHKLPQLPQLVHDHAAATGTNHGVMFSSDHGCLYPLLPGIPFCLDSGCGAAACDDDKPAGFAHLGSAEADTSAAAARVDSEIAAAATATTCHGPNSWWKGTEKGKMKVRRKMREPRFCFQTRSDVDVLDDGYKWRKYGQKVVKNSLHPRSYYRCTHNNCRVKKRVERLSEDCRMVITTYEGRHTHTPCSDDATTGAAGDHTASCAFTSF

What follows are sequences tested against OsWRKY34 (Oryza sativa, UniProt Q0JBA9 1-250) (assay: protein-binding microarray (RPBM); PBS, 2% BSA, 51.3 ng/ul salmon testes DNA, 50 uM zinc acetate, 200 nM TF, 25 C, 1 h; high values mean tight binding). Conditions: protein: recombinant; tags: N-terminal polyhistidine and DsRed monomer fusion (pET32a); label: CyDye5-dUTP incorporated in the synthesized complementary strand; 3' TTTTT single-stranded linker to array surface; dsDNA, one strand shown.
In short: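 Transcription factors were made in E. coli BL21-CodonPlus as N-terminal fusions to a polyhistidine tag and DsRed, then purified on Ni–NTA. After primer extension with Cy5-dUTP and blocking with 2% BSA, a custom Agilent array was exposed for 1 h at 25 °C to 200 nM protein in PBS, 2% BSA, salmon testes DNA and 50 µM zinc acetate. Washed arrays were scanned on an Axon 4000B, and the binding signal is per-feature fluorescence intensity in arbitrary units.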

Sequence | binding signal
TGCACTGTTCTTTTCTTCCAGTAGTCACATAATCCTTGCACGGAGTCACCTAGTGCAG | 8850 fluorescence intensity (a.u.)
TTCTTCCAGCCCCACGCGCCTCATTTCTTCCGCCTGACCTCGGAGTCACCTAGTGCAG | 9830 fluorescence intensity (a.u.)
CTACTACACTATAATTAAGTACACGGTTGATTTTTTTTTCCGGAGTCACCTAGTGCAG | 9020 fluorescence intensity (a.u.)
TTTGTTTCTTCTTTCGCTTTTTTTTTTAGCATTTAACTATCGGAGTCACCTAGTGCAG | 9400 fluorescence intensity (a.u.)
CAAGCGAGTAGTAGTAGTATAATCTGTTTTTTGCTTTTTTCGGAGTCACCTAGTGCAG | 9060 fluorescence intensity (a.u.)
TTGATCTGCCGGCATGGTACTGCGTGAGAGGGGCGACGAACGGAGTCACCTAGTGCAG | 9250 fluorescence intensity (a.u.)
CAAATCAGTCCATTCTCACATCACCACTCACCAACCCGAACGGAGTCACCTAGTGCAG | 11800 fluorescence intensity (a.u.)
ATTGGTGGTAATCGGAGGTGGAGGTGGGCGTGATGATCTCCGGAGTCACCTAGTGCAG | 11100 fluorescence intensity (a.u.)
GGTGACACTTGTGCTATTAAACTGAAGCCTTTTTTTTTCTCGGAGTCACCTAGTGCAG | 8460 fluorescence intensity (a.u.)
CGAGGCTGGGGAGGGGAGGAGAAAGGCGGGGACGGCGCGGCGGAGTCACCTAGTGCAG | 12600 fluorescence intensity (a.u.)
CCGGCAAAAGTCTCTCCATCTTGTCATCGTCTTCTCCAGCCGGAGTCACCTAGTGCAG | 8410 fluorescence intensity (a.u.)
CGTTCTTGCTGTACATTTTTCGGCTTTAAAATATTTCGTTCGGAGTCACCTAGTGCAG | 10400 fluorescence intensity (a.u.)
TCAACTCCACACTCCGGCGCCGCACCCATCTCGTCCAGTCCGGAGTCACCTAGTGCAG | 9370 fluorescence intensity (a.u.)
TTGCGCTTCGTCGACAGTTTCGCGGCCACGTTGTCCAAGGCGGAGTCACCTAGTGCAG | 8410 fluorescence intensity (a.u.)
TTCTTTTTATATTTTCTTTTGTTGGTTTTTTTCGTCTCAACGGAGTCACCTAGTGCAG | 13200 fluorescence intensity (a.u.)
TTCAGTATTCCTAGTGTTGTTAACTATAAGTTACTGACATCGGAGTCACCTAGTGCAG | 8390 fluorescence intensity (a.u.)
TTCCATTATACCACTGGTTCGGCTAAATCGCCGGCAACCACGGAGTCACCTAGTGCAG | 10500 fluorescence intensity (a.u.)
GATATTCTAGTTACCACTTAATTAGCAGCCCTGATATTTGCGGAGTCACCTAGTGCAG | 8670 fluorescence intensity (a.u.)
TAAGAGTTATTCATGATTTATATTTCCAATGTTTGACTTACGGAGTCACCTAGTGCAG | 8210 fluorescence intensity (a.u.)
TGTATTGGGTTGGGCTAAATTGAGTGACTTAGGAATTACGCGGAGTCACCTAGTGCAG | 9910 fluorescence intensity (a.u.)
ATGGTGGCTGAAGGGGTTGGATTGGATGAGGTGACATATACGGAGTCACCTAGTGCAG | 13200 fluorescence intensity (a.u.)

Sequence | binding signal
ATCTTCACAACCGTCGGCATCCAATCTTTATTCCTTACTTCGGAGTCACCTAGTGCAG | 8320 fluorescence intensity (a.u.)
CGCTTGTGGAGCGGTTGGGTGGGTGGTGATTCTTCTTGGCCGGAGTCACCTAGTGCAG | 8290 fluorescence intensity (a.u.)
TACAACGTTGACCGAAAGTCGTGGCTTTTTACCGGTTTTCCGGAGTCACCTAGTGCAG | 13700 fluorescence intensity (a.u.)
TTTTGTGTTTCTTGAGGTGTTTCTTTGTGGCCTTCTCGTCCGGAGTCACCTAGTGCAG | 8500 fluorescence intensity (a.u.)
AATATCAATTTGTTGCAACATTAGCGGCATGTTTTAGTTTCGGAGTCACCTAGTGCAG | 8370 fluorescence intensity (a.u.)
CACCTTGTCATTGGCCAATCCTTCGCGTACGGCCCGCGAGCGGAGTCACCTAGTGCAG | 12000 fluorescence intensity (a.u.)
CTCCCTTGTAGCACATATCTGATGCATATTCGATCAAACGCGGAGTCACCTAGTGCAG | 10700 fluorescence intensity (a.u.)
CAATCTTTATCCCGTCATCCACCTCATTGTTCTTACCCAACGGAGTCACCTAGTGCAG | 8260 fluorescence intensity (a.u.)
TAATCATCTCTCGTTCACACATTTCCATCGAAAGTATCCCCGGAGTCACCTAGTGCAG | 9630 fluorescence intensity (a.u.)
ATTAGGGATAACCGTCACTGTTTGTTGCTGTTTTTATGTTCGGAGTCACCTAGTGCAG | 9960 fluorescence intensity (a.u.)
TCATCTCGTATCGCCGCGCTCCTCCTTTCGCTCGCCTGCTCGGAGTCACCTAGTGCAG | 8690 fluorescence intensity (a.u.)
TTCAATTCATGTGTGCCAAGTTAACGCAATATAAACTATACGGAGTCACCTAGTGCAG | 8580 fluorescence intensity (a.u.)
AGCACCAGTTCATCGAACACTTATCTTTTTCGACCCTTAGCGGAGTCACCTAGTGCAG | 8280 fluorescence intensity (a.u.)
GAGGTCCACAAACAGACGCTAAACCACCTCAACCACAATTCGGAGTCACCTAGTGCAG | 11400 fluorescence intensity (a.u.)
GCTACACATTCCAAATAACTACCTTACCCAACCCAAGTCCCGGAGTCACCTAGTGCAG | 8720 fluorescence intensity (a.u.)
TACTCCCTCAAATATAGCAACCTTGTACCTCTGTCCAGATCGGAGTCACCTAGTGCAG | 8590 fluorescence intensity (a.u.)
CTCTCTCCCAACAACACTGCGCCACAGACACAAATCACACCGGAGTCACCTAGTGCAG | 8630 fluorescence intensity (a.u.)
TGATTCAACTCCGTACATTCTGAGTTCATCCTTTTAATTACGGAGTCACCTAGTGCAG | 8280 fluorescence intensity (a.u.)
AACAGCATAATGATTCATATCTTATACGACTTTGGTTGACCGGAGTCACCTAGTGCAG | 9010 fluorescence intensity (a.u.)
TCCGTTTTCTCACTAGGAGCTGGTGTCCTCGCGGTCCTTACGGAGTCACCTAGTGCAG | 11300 fluorescence intensity (a.u.)
GCTGAGACTGTAACCCAACTCAATGTTTCCGTTCCGTTAGCGGAGTCACCTAGTGCAG | 8080 fluorescence intensity (a.u.)

Reprinted from the listing (13 entries):
Sequence | binding signal
TAATCATCTCTCGTTCACACATTTCCATCGAAAGTATCCCCGGAGTCACCTAGTGCAG | 9630 fluorescence intensity (a.u.)
ATTAGGGATAACCGTCACTGTTTGTTGCTGTTTTTATGTTCGGAGTCACCTAGTGCAG | 9960 fluorescence intensity (a.u.)
TCATCTCGTATCGCCGCGCTCCTCCTTTCGCTCGCCTGCTCGGAGTCACCTAGTGCAG | 8690 fluorescence intensity (a.u.)
TTCAATTCATGTGTGCCAAGTTAACGCAATATAAACTATACGGAGTCACCTAGTGCAG | 8580 fluorescence intensity (a.u.)
AGCACCAGTTCATCGAACACTTATCTTTTTCGACCCTTAGCGGAGTCACCTAGTGCAG | 8280 fluorescence intensity (a.u.)
GAGGTCCACAAACAGACGCTAAACCACCTCAACCACAATTCGGAGTCACCTAGTGCAG | 11400 fluorescence intensity (a.u.)
GCTACACATTCCAAATAACTACCTTACCCAACCCAAGTCCCGGAGTCACCTAGTGCAG | 8720 fluorescence intensity (a.u.)
TACTCCCTCAAATATAGCAACCTTGTACCTCTGTCCAGATCGGAGTCACCTAGTGCAG | 8590 fluorescence intensity (a.u.)
CTCTCTCCCAACAACACTGCGCCACAGACACAAATCACACCGGAGTCACCTAGTGCAG | 8630 fluorescence intensity (a.u.)
TGATTCAACTCCGTACATTCTGAGTTCATCCTTTTAATTACGGAGTCACCTAGTGCAG | 8280 fluorescence intensity (a.u.)
AACAGCATAATGATTCATATCTTATACGACTTTGGTTGACCGGAGTCACCTAGTGCAG | 9010 fluorescence intensity (a.u.)
TCCGTTTTCTCACTAGGAGCTGGTGTCCTCGCGGTCCTTACGGAGTCACCTAGTGCAG | 11300 fluorescence intensity (a.u.)
GCTGAGACTGTAACCCAACTCAATGTTTCCGTTCCGTTAGCGGAGTCACCTAGTGCAG | 8080 fluorescence intensity (a.u.)

More results:

Sequence | binding signal
TCCTCCCTCACGTCGTCGCCATTACGCCTGACACGCTCCACGGAGTCACCTAGTGCAG | 8790 fluorescence intensity (a.u.)
GAGAGAGGGGTTGGGTTTGGTTGGTGTTTGTGTGGAGATGCGGAGTCACCTAGTGCAG | 12800 fluorescence intensity (a.u.)
ACTGTTCGTTTTTCCACTTAAGTTCTGCTTGGTTTTTTTTCGGAGTCACCTAGTGCAG | 16600 fluorescence intensity (a.u.)
AATCAACTCGTGTGAAAGTTCTATAAATATTTGGGTGGGGCGGAGTCACCTAGTGCAG | 9880 fluorescence intensity (a.u.)
TACGTACCGCGCCATCTCTCTCTCTCTCTCTGTAATCCTTCGGAGTCACCTAGTGCAG | 8040 fluorescence intensity (a.u.)
TTCAAAATGTTTGACACCGTTGACTTTTTAACACATGATCCGGAGTCACCTAGTGCAG | 32400 fluorescence intensity (a.u.)
TGGCGCCCCACCACACCACCTCACTGGTTCACTTCACTCACGGAGTCACCTAGTGCAG | 9660 fluorescence intensity (a.u.)
CAATTTCCATGGTTTTCTTAGCATTCTCGTCTCTAGTATTCGGAGTCACCTAGTGCAG | 9610 fluorescence intensity (a.u.)
TCATGCTACTATCATTTTAGCATTAACTGTTACGTTAGAACGGAGTCACCTAGTGCAG | 8170 fluorescence intensity (a.u.)
CACGTAAACTTCCAACTTTTCTGTTACATTGTTCCAATTTCGGAGTCACCTAGTGCAG | 9240 fluorescence intensity (a.u.)
AACCATCCACCACTCACTTTTATCTACTTTTTTTAATAACCGGAGTCACCTAGTGCAG | 11000 fluorescence intensity (a.u.)
CACATATCATCTCTTTCTCCAGCACTACCCAGCCACACAACGGAGTCACCTAGTGCAG | 10500 fluorescence intensity (a.u.)
GAGAGGTGGGAAGCCAAAGTGGGAGAAGCAAAAATATTCTCGGAGTCACCTAGTGCAG | 8380 fluorescence intensity (a.u.)
CCACCGCCGCCGCCGCTCGCCCCGCGCCCGCGCCGCCGCACGGAGTCACCTAGTGCAG | 9890 fluorescence intensity (a.u.)
AAACAAGTCTTACGGCTCACCTGCTTATCACCATTATCTTCGGAGTCACCTAGTGCAG | 9430 fluorescence intensity (a.u.)
TAAATCCGCATTTCTATTTTCACTGCTTTGTTTGATTGTCCGGAGTCACCTAGTGCAG | 9350 fluorescence intensity (a.u.)
GATACACTCGATCTTTTTTTTGTGTATTTTGGTTTGCTTTCGGAGTCACCTAGTGCAG | 9820 fluorescence intensity (a.u.)
ACTATTATATTGATCAATTGATTACATAATTCACGTGTCGCGGAGTCACCTAGTGCAG | 13700 fluorescence intensity (a.u.)
TTGTTTTTGTGTGTGTGTGTGTTTGTTGTTTATTTTCAGACGGAGTCACCTAGTGCAG | 9980 fluorescence intensity (a.u.)
GCAGAGCTAACCACCACCATTGTCAGCATTTCTTGGTTTTCGGAGTCACCTAGTGCAG | 12400 fluorescence intensity (a.u.)
GGGTTTAGTTTTTATAGAAACTTTTTCGGGTATTTTTTTTCGGAGTCACCTAGTGCAG | 11300 fluorescence intensity (a.u.)

Sequence | binding signal
TCCATGACTATGCAAAACCATCTATCTCTCTTTAAACATGCGGAGTCACCTAGTGCAG | 8690 fluorescence intensity (a.u.)
TCCTTAAATCAACATCAATTCGGCTTGTTGTTATCATCTACGGAGTCACCTAGTGCAG | 8840 fluorescence intensity (a.u.)
ATGTTTGACCGTTCGTTTTATTCAAAAAAAACTTTTGTGACGGAGTCACCTAGTGCAG | 8140 fluorescence intensity (a.u.)
AAAAGCATATGGTTTCTGACTTTCTTCTCCATTCCTTTTCCGGAGTCACCTAGTGCAG | 8510 fluorescence intensity (a.u.)
GTAGTGTGGATGCCATTCAAATCTGCCTCCGCCGCCGACGCGGAGTCACCTAGTGCAG | 8180 fluorescence intensity (a.u.)
AGTAGAGTATTTTTTTTTCTTTTTTGATTGATGGTGATAACGGAGTCACCTAGTGCAG | 8320 fluorescence intensity (a.u.)
TCTCATTTTACACTTTGAATATCTCTCCCTTTTCTTTTGACGGAGTCACCTAGTGCAG | 8340 fluorescence intensity (a.u.)
ACCACGCCATGAGTTGCATCCATGCATGCTTCTATTCATTCGGAGTCACCTAGTGCAG | 11600 fluorescence intensity (a.u.)
TTTTCTAGGCTGATAGTTCTAGCTGTAGTTTCTTCCTATACGGAGTCACCTAGTGCAG | 8250 fluorescence intensity (a.u.)
GTCGCACAACTTCACCTTCGCCATCCAGCAGGCGCGCACCCGGAGTCACCTAGTGCAG | 9180 fluorescence intensity (a.u.)
GTGCACCGTGGCGGGGCTGAAGGAGCGGGTGCAGGAGGGGCGGAGTCACCTAGTGCAG | 8680 fluorescence intensity (a.u.)
CATCTCCATTCTTTCATCCTCATCTCTAATGGAGAATTTCCGGAGTCACCTAGTGCAG | 9460 fluorescence intensity (a.u.)
ATCACCACCGCCGCCAACCACTCCTCACCAAGTCAAAGTTCGGAGTCACCTAGTGCAG | 11200 fluorescence intensity (a.u.)
CTGTACCAGTTGTGCGTGGGCCATTTGCGATTTGCTACAACGGAGTCACCTAGTGCAG | 9350 fluorescence intensity (a.u.)
TGCTCTGCCTCCTCCTCGGCTTCTGCTTCGCGTTCGCGGCCGGAGTCACCTAGTGCAG | 8130 fluorescence intensity (a.u.)
CCCACATTCTGCCACCCTCCCCTCACACCCCACCCTTTCCCGGAGTCACCTAGTGCAG | 8870 fluorescence intensity (a.u.)
TCTACGAGGGTTTTTGCGCTTTTGTTGCTCTCCGCTCCGCCGGAGTCACCTAGTGCAG | 8160 fluorescence intensity (a.u.)
ACCCATGCCTGACCCGATACATTTGTATTAGCTAATTTCGCGGAGTCACCTAGTGCAG | 10300 fluorescence intensity (a.u.)
TATAAGTTAAGTATAGTTGACCAAATCTCAACTTTTCAGCCGGAGTCACCTAGTGCAG | 8690 fluorescence intensity (a.u.)
GCGTGGTGCATTTCTTTGTTTTTTGAGGTAGCCATGGTCCCGGAGTCACCTAGTGCAG | 9450 fluorescence intensity (a.u.)
GCTGCTTGTTCTTGAACCCCTTTGTCGCCTGGTAGAGCTCCGGAGTCACCTAGTGCAG | 9390 fluorescence intensity (a.u.)
